# No constants are given. Whether binding was seen depends on the method and setting. Some entries that bind do so weakly or less than the wild type. Sequences can lack the tags named with a protein.
# By UniProt entry, the sequences of proteins in these tests, tags left out. Where a name states a change or a piece, a line headed by the entry shows the natural chain unless it says otherwise. Residues count along the entry.
# UniProt P83916: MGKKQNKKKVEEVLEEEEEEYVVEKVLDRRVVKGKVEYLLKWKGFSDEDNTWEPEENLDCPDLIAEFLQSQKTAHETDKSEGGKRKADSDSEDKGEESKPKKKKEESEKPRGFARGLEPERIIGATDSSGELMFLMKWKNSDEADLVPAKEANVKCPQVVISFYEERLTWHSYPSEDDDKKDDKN
# UniProt Q99496: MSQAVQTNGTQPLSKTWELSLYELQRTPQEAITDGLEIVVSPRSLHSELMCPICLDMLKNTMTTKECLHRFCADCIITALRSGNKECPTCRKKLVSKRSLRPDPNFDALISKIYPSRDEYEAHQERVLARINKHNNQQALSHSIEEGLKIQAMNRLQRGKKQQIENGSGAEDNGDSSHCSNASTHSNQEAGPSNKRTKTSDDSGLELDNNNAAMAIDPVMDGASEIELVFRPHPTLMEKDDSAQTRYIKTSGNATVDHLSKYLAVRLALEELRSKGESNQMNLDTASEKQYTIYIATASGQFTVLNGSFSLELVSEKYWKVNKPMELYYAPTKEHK
# UniProt O75530: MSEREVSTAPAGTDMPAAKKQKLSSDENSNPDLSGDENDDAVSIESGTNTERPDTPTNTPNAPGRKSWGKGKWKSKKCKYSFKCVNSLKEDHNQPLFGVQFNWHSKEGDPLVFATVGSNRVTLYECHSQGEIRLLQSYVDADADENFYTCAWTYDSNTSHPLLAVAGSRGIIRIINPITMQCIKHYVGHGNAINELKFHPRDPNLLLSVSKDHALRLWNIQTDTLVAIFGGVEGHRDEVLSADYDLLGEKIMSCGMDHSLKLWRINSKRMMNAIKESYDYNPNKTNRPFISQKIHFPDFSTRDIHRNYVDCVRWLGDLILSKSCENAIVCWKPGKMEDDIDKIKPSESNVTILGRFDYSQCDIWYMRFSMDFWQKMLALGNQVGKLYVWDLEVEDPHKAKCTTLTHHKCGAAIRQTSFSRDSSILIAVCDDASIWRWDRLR
# EED amino acids 142-200 (yeast two-hybrid fusion): residues 142-200 of O75530
# UniProt Q13185: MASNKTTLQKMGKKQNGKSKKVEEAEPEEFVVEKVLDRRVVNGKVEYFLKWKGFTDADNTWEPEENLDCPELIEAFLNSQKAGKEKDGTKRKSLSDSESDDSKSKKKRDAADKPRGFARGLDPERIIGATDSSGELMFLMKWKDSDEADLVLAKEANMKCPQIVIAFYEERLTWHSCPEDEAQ
# UniProt P45973: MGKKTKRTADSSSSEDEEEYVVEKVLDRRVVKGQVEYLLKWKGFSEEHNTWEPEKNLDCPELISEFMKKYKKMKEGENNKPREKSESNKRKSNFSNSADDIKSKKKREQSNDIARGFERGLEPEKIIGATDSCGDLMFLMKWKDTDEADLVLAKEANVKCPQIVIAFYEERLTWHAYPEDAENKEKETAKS
# T1: CBX8 (yeast two-hybrid fusion) (human) (UniProt Q9HC52)
# T1 sequence: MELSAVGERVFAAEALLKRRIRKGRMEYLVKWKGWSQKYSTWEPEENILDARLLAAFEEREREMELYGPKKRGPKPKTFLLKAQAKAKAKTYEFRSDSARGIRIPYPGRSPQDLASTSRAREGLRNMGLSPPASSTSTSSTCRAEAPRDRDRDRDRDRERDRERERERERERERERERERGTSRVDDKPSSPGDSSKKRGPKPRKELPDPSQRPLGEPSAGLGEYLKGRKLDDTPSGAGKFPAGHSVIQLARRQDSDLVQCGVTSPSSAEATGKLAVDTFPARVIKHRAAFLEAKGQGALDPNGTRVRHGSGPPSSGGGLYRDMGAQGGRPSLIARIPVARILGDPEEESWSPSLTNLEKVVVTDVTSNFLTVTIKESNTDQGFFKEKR
# T2: CBX7 amino acids 151-210 (yeast two-hybrid fusion) (human) (UniProt O95931)
# T2 sequence: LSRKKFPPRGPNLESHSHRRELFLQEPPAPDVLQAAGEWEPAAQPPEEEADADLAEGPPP
# T3: CBX8 amino acids 311-350 (yeast two-hybrid fusion) (human) (UniProt Q9HC52)
# T3 sequence: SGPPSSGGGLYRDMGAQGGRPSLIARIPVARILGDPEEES
# B1: TEX10 (yeast two-hybrid fusion) (protein, UniProt Q9NXF1 1-929)
# chain: MTKKRKRQHDFQKVKLKVGKKKPKLQNATPTNFKTKTIHLPEQLKEDGTLPTNNRKLNIKDLLSQMHHYNAGVKQSALLGLKDLLSQYPFIIDAHLSNILSEVTAVFTDKDANVRLAAVQLLQFLAPKIRAEQISPFFPLVSAHLSSAMTHITEGIQEDSLKVLDILLEQYPALITGRSSILLKNFVELISHQQLSKGLINRDRSQSWILSVNPNRRLTSQQWRLKVLVRLSKFLQALADGSSRLRESEGLQEQKENPHATSNSIFINWKEHANDQQHIQVYENGGSQPNVSSQFRLRYLVGGLSGVDEGLSSTENLKGFIEIIIPLLIECWVEAVPPQLATPVGNGIEREPLQVMQQVLNIISLLWKLSKQQDETHKLESWLRKNYLIDFKHHFMSRFPYVLKEITKHKRKEPNKSIKHCTVLSNNIDHLLLNLTLSDIMVSLANASTLQKDCSWIEMIRKFVTETLEDGSRLNSKQLNRLLGVSWRLMQIQPNREDTETLIKAVYTLYQQRGLILPVRTLLLKFFSKIYQTEELRSCRFRYRSKVLSRWLAGLPLQLAHLGSRNPELSTQLIDIIHTAAARANKELLKSLQATALRIYDPQEGAVVVLPADSQQRLVQLVYFLPSLPADLLSRLSRCCIMGRLSSSLAAMLIGILHMRSSFSGWKYSAKDWLMSDVDYFSFLFSTLTGFSKEELTWLQSLRGVPHVIQTQLSPVLLYLTDLDQFLHHWDVTEAVFHSLLVIPARSQNFDILQSAISKHLVGLTVIPDSTAGCVFGVICKLLDHTCVVSETLLPFLASCCYSLLYFLLTIEKGEAEHLRKRDKLWGVCVSILALLPRVLRLMLQSLRVNRVGPEELPVVGQLLRLLLQHAPLRTHMLTNAILVQQIIKNITTLKSGSVQEQWLTDLHYCFNVYITGHPQGPSALATVY
# Tests used:
# Experiment in all cases: two-hybrid
# [1] = biological target: CBX1 (yeast two-hybrid fusion) (human) (UniProt P83916)
# [2] = biological target: T1, CBX8 (yeast two-hybrid fusion) (human)
# [3] = biological target: RING1B (yeast two-hybrid fusion) (human) (UniProt Q99496)
# [4] = biological target: EED (yeast two-hybrid fusion) (human) (UniProt O75530)
# [5] = biological target: T2, CBX7 amino acids 151-210 (yeast two-hybrid fusion) (human)
# [6] = biological target: CBX3 (yeast two-hybrid fusion) (human) (UniProt Q13185)
# [7] = biological target: CBX7 (yeast two-hybrid fusion) (human) (UniProt O95931)
# [8] = biological target: EED amino acids 142-200 (yeast two-hybrid fusion) (human) (UniProt O75530)
# [9] = biological target: CBX5 (yeast two-hybrid fusion) (human) (UniProt P45973)
# [10] = biological target: T3, CBX8 amino acids 311-350 (yeast two-hybrid fusion) (human)
binder,measurement,setting,value
B1,binding,[1],no binding
same,binding,[2],binds
same,binding,[3],binds
same,binding,[4],binds
same,binding,[5],binds
same,binding,[6],no binding
same,binding,[7],binds
same,binding,[8],binds
same,binding,[9],no binding
same,binding,[10],binds

# Reference: article doi:10.1101/2019.12.23.887547
